Data from patent US20140336126A1.
Results are given in words; binding and its absence hold for the method and conditions named. Binding seen in cells or lysates may run through a third protein. Some binding calls cover weakened binding; strength is not graded here.

Chains of the proteins cited; added tags and fusions are not shown. Lines headed by an entry give the natural chain unless they say otherwise; changes in a name come on top.
UniProt O14974: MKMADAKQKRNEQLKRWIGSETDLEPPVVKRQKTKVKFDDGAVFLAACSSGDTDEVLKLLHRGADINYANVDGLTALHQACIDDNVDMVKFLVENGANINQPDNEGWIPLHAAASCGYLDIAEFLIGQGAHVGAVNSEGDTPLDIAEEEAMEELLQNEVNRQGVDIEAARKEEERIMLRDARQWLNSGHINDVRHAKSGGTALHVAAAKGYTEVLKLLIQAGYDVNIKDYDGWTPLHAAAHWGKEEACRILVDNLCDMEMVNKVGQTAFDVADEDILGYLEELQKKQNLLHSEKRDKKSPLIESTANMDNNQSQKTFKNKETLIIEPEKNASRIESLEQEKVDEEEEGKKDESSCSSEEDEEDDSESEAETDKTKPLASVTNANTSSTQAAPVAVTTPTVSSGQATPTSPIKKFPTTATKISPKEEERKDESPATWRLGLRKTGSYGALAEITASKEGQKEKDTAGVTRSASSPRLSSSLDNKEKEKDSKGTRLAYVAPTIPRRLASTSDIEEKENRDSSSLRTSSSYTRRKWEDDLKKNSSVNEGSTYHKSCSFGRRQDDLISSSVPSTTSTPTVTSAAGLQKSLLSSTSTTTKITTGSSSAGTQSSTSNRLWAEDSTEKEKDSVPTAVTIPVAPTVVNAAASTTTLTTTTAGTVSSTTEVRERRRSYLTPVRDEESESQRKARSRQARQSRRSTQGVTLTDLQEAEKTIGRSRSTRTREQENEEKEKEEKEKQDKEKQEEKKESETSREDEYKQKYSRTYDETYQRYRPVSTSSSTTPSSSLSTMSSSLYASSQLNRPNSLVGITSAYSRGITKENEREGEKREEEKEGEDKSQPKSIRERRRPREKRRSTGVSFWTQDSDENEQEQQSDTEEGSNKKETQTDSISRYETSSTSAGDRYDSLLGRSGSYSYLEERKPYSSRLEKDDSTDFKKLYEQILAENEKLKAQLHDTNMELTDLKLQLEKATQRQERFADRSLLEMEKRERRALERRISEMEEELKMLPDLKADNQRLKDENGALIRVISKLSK

How the values were obtained:
[1] = molecular target: myosin phosphatase targeting subunit 1 (MYPT1) (Homo sapiens (Human)) (UniProt O14974); experiment: anti-GFP co-immunoprecipitation of GFP-Optn fragments with HA-MYPT1, HeLa cells (FIG. 4E)
[2] = molecular target: myosin phosphatase targeting subunit 1 (MYPT1) (Homo sapiens (Human)) (UniProt O14974); experiment: anti-GFP co-immunoprecipitation of GFP-tagged Optn fragments with HA-MYPT1, HeLa cells (FIG. 4E)

Which binding [1] does the source give for “GFP-Optn 131-170 (from UniProt Q5R923 131-170)” here?
Its binding is “binds”.

And the binding [2]?
The binding was “binds”.
